“And” between values parts separate entries of the source, which are not always exact repeats. Equal entries are not always repeated. Square brackets hold non-standard residues; d marks the D form. Peptide text beside a SMILES is read from it.
Legend:
[1] = test system: CL:DOPC 1:3 liposomes (cardiolipin); test: Isothermal titration calorimetry (ITC) of test compound into CL:DOPC liposomes; type: binding; conditions: 20 mM HEPES pH 7.4
Description: Example 18: Isothermal Titration Calorimetry (ITC) Study
1. Preparation of CL:DOPC 1:3 Liposomes (CL Concentration 0.1 mM)
146 μl of cardiolipin solution (5.1 mg/mL in EtOH, Sigma-Aldrich, C1649-10MG) were mixed with 1.2 mg 0.05 mg (exact weight, see Table 1) of DOPC (Avanti Polar Lipids, 850375P) and 20 mM HEPES buffer pH=7.4. Resulting solution was diluted up to 5 mL with the same buffer, vortexed for 2 min and sonicated in bath sonicator for 30 min at room temperature. Liposomes were produced by manual extrusion (Avestin, The LiposoFast-Stabilizer with a LiposoFast-Basic) through a 100 nm filter (Avestin, PC membranes 0.1 m or Avanti Polar Lipids, PC membranes 0.1 μm, 610005). Extrusion was performed for 21 times. EtOH concentration in sample is 2.9%. Obtained CL:DOPC solutions were tested for homogeneity by DLS (Malvern Instruments Ltd, Zetasizer Nano ZSP, instrument with Malvern Instruments Ltd software 7.11) using the following parameters—medium: water; refractive index: 1.33; viscosity: 0.8872 cP; temperature: 25° C.; nanoparticles: liposomes; refractive index of materials: 1.60; detection angle of 173°, a wavelength of 633 nm. All measurements were performed in triplicate.
2. Preparation of Test Compound Solutions
2 mg or 14 mg (exact weight, see Table 1) of test compound were dissolved in 20 mM HEPES buffer (pH=7.4, contains 2,9% (V/V) of EtOH) to obtain 0.7 mM concentration (for exact volumes see Table 3). Obtained solution was vortexed for 2 min.
3. ITC Titration Experiments
Instrument cell was washed and purged with ≈100 μL of CL:DOPC liposomes solution. After washing cell was filled with CL:DOPC liposomes solution. Injection syringe was loaded with test compound solution. Injection volumes were set to values shown in Table 2 and DP values were set to 2.5 μcal/sec in all experiments. Time between injections—105 seconds. Titration of each compound is performed in triplicate, results are reported as mean value±standard deviation (see Table 4).

[2] = general procedure: hybrid (solid and solution phase) peptide synthesis; Fmoc-Phe-OH Wang Resin (loading 0.5 mmol/g); Fmoc-DMT-OH Wang Resin (loading 0.5 mmol/g); EDC.HCl/HOBt
[3] = coupling step, HPLC, hydrochloride or trifluoroacetate
[4] = late stage modification step, HPLC, hydrochloride or trifluoroacetate
[5] = coupling step, hydrochloride or trifluoroacetate
[6] = late stage modification step, hydrochloride or trifluoroacetate
[7] = late stage modification step, 210 nm, hydrochloride or trifluoroacetate
[8] = late stage modification step, 256 nm, hydrochloride or trifluoroacetate

With N=C(N)NCCC[C@@H](NC(=O)[C@@H](N)Cc1ccccc1)C(=O)N[C@@H](Cc1ccccc1)C(=O)N[C@@H](CCCCN)C(N)=O [Example 1 non-deuterated, Phe-D-Arg-Phe-Lys-NH2, reference compound] (H-F[dR]FK-NH2) the “-TΔS” value ([1]; Average of replicates) was -0.59 kcal/mol, the ΔG ([1]; Average of replicates) was -7.20 kcal/mol and the ΔH ([1]; Average of replicates) was -6.611 kcal/mol. For the same molecule, the ΔS ([1]; Average of replicates) was 0.00198 kcal/mol, the “-TΔS” value ([1]; single replicate titration) was -0.65 kcal/mol and -0.36 kcal/mol and -0.76 kcal/mol and the ΔG ([1]; single replicate titration) was -7.31 kcal/mol and -7.02 kcal/mol and -7.27 kcal/mol. For the same molecule, the ΔH ([1]; single replicate titration) was -6.66 kcal/mol and -6.666 kcal/mol and -6.508 kcal/mol and the ΔS ([1]; single replicate titration) was 0.00219 kcal/mol and 0.0012 kcal/mol and 0.00254 kcal/mol.
With [2H]C([2H])(N)C([2H])([2H])C([2H])([2H])C([2H])([2H])[C@H](NC(=O)[C@H](Cc1ccccc1)NC(=O)[C@@H](CCCNC(=N)N)NC(=O)[C@@H](N)Cc1ccccc1)C(N)=O [Example 1, Phe-D-Arg-Phe-(3,3,4,4,5,5,6,6-octadeuterium)-Lys-NH2] the “-TΔS” value ([1]; Average of replicates) was 0.95 kcal/mol, the ΔG ([1]; Average of replicates) was -7.62 kcal/mol and the ΔH ([1]; Average of replicates) was -8.573 kcal/mol. For the same molecule, the ΔS ([1]; Average of replicates) was -0.0032 kcal/mol, the “-TΔS” value ([1]; single replicate titration) was 1.08 kcal/mol and 0.69 kcal/mol and 0.99 kcal/mol and 1.04 kcal/mol and the ΔG ([1]; single replicate titration) was -7.74 kcal/mol and -7.63 kcal/mol and -7.59 kcal/mol and -7.54 kcal/mol. For the same molecule, the ΔH ([1]; single replicate titration) was -8.821 kcal/mol and the ΔS ([1]; single replicate titration) was -0.00363 kcal/mol and -0.00232 kcal/mol and -0.00331 kcal/mol and -0.00349 kcal/mol.
With “(Boc)-D-Arg-DMT-(N6-Cbz)-Lys-(α-d)-Phe-NH2” the “final purity (method not given)” value [2, 3] was “purity—70%”.
For (Boc)-D-Arg-DMT-Lys-(α-d)-Phe-NH2, the “crude purity (method not given)” value [2, 4] was “purity—70%”.
With “(Boc)-Phe-D-Arg-(2,3,4,5,6-d5)-Phe-(N6-Cbz)-Lys-NH2” the step yield [2, 5] was 30%.
For “(Boc)-Phe-D-Arg-(2,3,4,5,6-d5)-Phe-Lys-NH2”, the step yield [2, 6] was 85%.
Molecule “(Boc)-Phe-D-Arg-(α,β,β,2,3,4,5,6-d8)-Phe-(N6-Cbz)-Lys-NH2” has a step yield [2, 5] of 23%.
With “(Boc)-Phe-D-Arg-(α,β,β,2,3,4,5,6-d8)-Phe-Lys-NH2” the step yield [2, 6] was 94%.
In the case of “(Boc)-Phe-D-Arg-(α-d)-Phe-(N6-Cbz)-Lys-NH2”, the “final purity (method not given)” value [2, 3] was 90%.
With “(Boc)-Phe-D-Arg-Phe-(N6-Boc-2,5,5-d3)-Lys-NH2” the “final purity (method not given)” value [2, 3] was 70%.
In the case of (Cbz)-D-Arg-DMT-(2,6,6-d3)-Lys-Phe-NH2, the “final HPLC purity” value [2, 7] was 97.1% and the step yield [2, 6] was 73%.
With “(Cbz)-D-Arg-DMT-(3,3,4,4,5,5,6,6-d8)-Lys-Phe-NH2” the “final HPLC purity” value [2, 7] was 97.34% and the step yield [2, 6] was 79%.
In the case of “(Cbz)-D-Arg-DMT-(4,4,5,5-d4)-Lys-Phe-NH2”, the “final HPLC purity” value [2, 7] was 97.3% and the step yield [2, 6] was 66%.
“(Cbz)-D-Arg-DMT-(N6-Boc-2,6,6-d3)-Lys-Phe-NH2” showed a step yield [2, 5] of 69%.
Molecule “(Cbz)-D-Arg-DMT-(N6-Boc-3,3,4,4,5,5,6,6-d8)-Lys-Phe-NH2” has a step yield [2, 5] of 80%.
“(Cbz)-D-Arg-DMT-(N6-Boc-4,4,5,5-d4)-Lys-Phe-NH2” gave a step yield [2, 5] of 76%.
For “(N-Boc-α,β,β,2,3,4,5,6-d8)-Phe-D-Arg-Phe-(N6-Cbz)-Lys-NH2”, the “final purity (method not given)” value [2, 3] was “purity—80%”.
With “(α,β,β,2,3,4,5,6-d8)-Phe-D-Arg-Phe-(N6-Cbz)-Lys-NH2” the “crude purity (method not given)” value [2, 4] was “purity—80%”.
Molecule “D-(Boc)-Arg-DMT-(N6-Cbz)-Lys-(α,β,β,2,3,4,5,6-d8)-Phe-NH2” has a step yield [2, 5] of 30%.
“D-(Boc)-Arg-DMT-Lys-(α,β,β, 2,3,4,5,6-d8)-Phe-NH2” showed a step yield [2, 6] of 89%.
For D-Arg-DMT-(2,6,6-d3)-Lys-Phe-NH2, the “crude HPLC purity” value [2, 7] was 96.07%, the “crude HPLC purity” value [2, 8] was 94.19% and the step yield [2, 6] was 99%.
For “D-Arg-DMT-(3,3,4,4,5,5,6,6-d8)-Lys-Phe-NH2”, the “crude HPLC purity” value [2, 7] was 81.59%, the “final HPLC purity” value [2, 7] was 98.95% and the “crude HPLC purity” value [2, 8] was 92.01%. The “final HPLC purity” value [2, 8] was 99.70%.
With D-Arg-DMT-(4,4,5,5-d4)-Lys-Phe-NH2 the “crude HPLC purity” value [2, 7] was 96.1% and the step yield [2, 6] was 99%.
“D-Arg-DMT-Lys-(α,β,β,2,3,4,5,6-d8)-Phe-NH2” showed a step yield [2, 6] of 34%.
With Phe-D-Arg-(2,3,4,5,6-d5)-Phe-Lys-NH2 the step yield [2, 6] was 61%.
Molecule “Phe-D-Arg-(α,β,β,2,3,4,5,6-d8)-Phe-Lys-NH2” has a step yield [2, 6] of 61%.
In the case of Phe-D-Arg-Phe-(2-d)-Lys-NH2, the “final HPLC purity” value ([2]; late stage modification step, HPLC, trifluoroacetate) was greater than 96%.

Reference: patent US20200361987A1 (STEALTH BIOTHERAPEUTICS CORP., priority 2017, published 2020)
